No constants are given. Whether binding was seen depends on the method and setting. Binding seen in cells or lysates may run through a third protein. Some binding calls cover weakened binding; strength is not graded here.

Chains of the proteins cited; added tags and fusions are not shown.
UniProt O14744: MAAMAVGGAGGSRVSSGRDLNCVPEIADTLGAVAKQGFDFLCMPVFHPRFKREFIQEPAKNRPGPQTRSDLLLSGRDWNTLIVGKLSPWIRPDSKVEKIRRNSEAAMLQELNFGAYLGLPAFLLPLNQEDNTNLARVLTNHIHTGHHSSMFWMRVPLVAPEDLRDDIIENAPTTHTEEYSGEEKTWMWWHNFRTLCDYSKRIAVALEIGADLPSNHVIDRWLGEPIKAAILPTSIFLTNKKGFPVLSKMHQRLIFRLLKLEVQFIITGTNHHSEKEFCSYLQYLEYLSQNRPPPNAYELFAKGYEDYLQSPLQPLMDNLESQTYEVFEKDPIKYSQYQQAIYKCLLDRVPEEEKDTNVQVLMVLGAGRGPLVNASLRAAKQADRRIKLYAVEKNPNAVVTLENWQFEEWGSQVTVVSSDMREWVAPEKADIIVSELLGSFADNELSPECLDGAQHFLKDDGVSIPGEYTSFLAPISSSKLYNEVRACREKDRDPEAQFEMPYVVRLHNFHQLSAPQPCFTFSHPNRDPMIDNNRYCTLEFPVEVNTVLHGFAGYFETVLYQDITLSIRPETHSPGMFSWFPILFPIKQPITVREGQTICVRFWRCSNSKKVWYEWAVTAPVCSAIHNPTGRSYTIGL

The target in the test is PRMT5 (Protein arginine methyltransferase 5) (human (endogenous in A549)) (UniProt O14744). Kind of test: co-IP; A549 cell lysates, endogenous proteins; protein A-agarose beads with SHARPIN or PRMT5 rabbit antibody, 4°C overnight, no-antibody (NA) control; western blot.

B1: SHARPIN (Shank-associated RH domain interacting protein) (protein, UniProt Q9H0F6 1-387)
chain: MAPPAGGAAAAASDLGSAAVLLAVHAAVRPLGAGPDAEAQLRRLQLSADPERPGRFRLELLGAGPGAVNLEWPLESVSYTIRGPTQHELQPPPGGPGTLSLHFLNPQEAQRWAVLVRGATVEGQNGSKSNSPPALGPEACPVSLPSPPEASTLKGPPPEADLPRSPGNLTEREELAGSLARAIAGGDEKGAAQVAAVLAQHRVALSVQLQEACFPPGPIRLQVTLEDAASAASAASSAHVALQVHPHCTVAALQEQVFSELGFPPAVQRWVIGRCLCVPERSLASYGVRQDGDPAFLYLLSAPREAPATGPSPQHPQKMDGELGRLFPPSLGLPPGPQPAASSLPSPLQPSWSCPSCTFINAPDRPGCEMCSTQRPCTWDPLAAAST
Consider B1, for which the binding result is listed as “binds”.
